In article PMC6101136:
These are yes or no findings as the source states them, for the method shown. Binding seen in cells or lysates may run through a third protein. Some results given as binding are weak or reduced against the parent protein; the word gives no strength. Values belong to the substance of their own block, whether it stands above or below them.

Protein sequences, listed by entry. Tags and fused reporters are not part of them. Lines headed by an entry give the natural chain unless they say otherwise; changes in a name come on top. Residues count along the entry.
UniProt Q15751: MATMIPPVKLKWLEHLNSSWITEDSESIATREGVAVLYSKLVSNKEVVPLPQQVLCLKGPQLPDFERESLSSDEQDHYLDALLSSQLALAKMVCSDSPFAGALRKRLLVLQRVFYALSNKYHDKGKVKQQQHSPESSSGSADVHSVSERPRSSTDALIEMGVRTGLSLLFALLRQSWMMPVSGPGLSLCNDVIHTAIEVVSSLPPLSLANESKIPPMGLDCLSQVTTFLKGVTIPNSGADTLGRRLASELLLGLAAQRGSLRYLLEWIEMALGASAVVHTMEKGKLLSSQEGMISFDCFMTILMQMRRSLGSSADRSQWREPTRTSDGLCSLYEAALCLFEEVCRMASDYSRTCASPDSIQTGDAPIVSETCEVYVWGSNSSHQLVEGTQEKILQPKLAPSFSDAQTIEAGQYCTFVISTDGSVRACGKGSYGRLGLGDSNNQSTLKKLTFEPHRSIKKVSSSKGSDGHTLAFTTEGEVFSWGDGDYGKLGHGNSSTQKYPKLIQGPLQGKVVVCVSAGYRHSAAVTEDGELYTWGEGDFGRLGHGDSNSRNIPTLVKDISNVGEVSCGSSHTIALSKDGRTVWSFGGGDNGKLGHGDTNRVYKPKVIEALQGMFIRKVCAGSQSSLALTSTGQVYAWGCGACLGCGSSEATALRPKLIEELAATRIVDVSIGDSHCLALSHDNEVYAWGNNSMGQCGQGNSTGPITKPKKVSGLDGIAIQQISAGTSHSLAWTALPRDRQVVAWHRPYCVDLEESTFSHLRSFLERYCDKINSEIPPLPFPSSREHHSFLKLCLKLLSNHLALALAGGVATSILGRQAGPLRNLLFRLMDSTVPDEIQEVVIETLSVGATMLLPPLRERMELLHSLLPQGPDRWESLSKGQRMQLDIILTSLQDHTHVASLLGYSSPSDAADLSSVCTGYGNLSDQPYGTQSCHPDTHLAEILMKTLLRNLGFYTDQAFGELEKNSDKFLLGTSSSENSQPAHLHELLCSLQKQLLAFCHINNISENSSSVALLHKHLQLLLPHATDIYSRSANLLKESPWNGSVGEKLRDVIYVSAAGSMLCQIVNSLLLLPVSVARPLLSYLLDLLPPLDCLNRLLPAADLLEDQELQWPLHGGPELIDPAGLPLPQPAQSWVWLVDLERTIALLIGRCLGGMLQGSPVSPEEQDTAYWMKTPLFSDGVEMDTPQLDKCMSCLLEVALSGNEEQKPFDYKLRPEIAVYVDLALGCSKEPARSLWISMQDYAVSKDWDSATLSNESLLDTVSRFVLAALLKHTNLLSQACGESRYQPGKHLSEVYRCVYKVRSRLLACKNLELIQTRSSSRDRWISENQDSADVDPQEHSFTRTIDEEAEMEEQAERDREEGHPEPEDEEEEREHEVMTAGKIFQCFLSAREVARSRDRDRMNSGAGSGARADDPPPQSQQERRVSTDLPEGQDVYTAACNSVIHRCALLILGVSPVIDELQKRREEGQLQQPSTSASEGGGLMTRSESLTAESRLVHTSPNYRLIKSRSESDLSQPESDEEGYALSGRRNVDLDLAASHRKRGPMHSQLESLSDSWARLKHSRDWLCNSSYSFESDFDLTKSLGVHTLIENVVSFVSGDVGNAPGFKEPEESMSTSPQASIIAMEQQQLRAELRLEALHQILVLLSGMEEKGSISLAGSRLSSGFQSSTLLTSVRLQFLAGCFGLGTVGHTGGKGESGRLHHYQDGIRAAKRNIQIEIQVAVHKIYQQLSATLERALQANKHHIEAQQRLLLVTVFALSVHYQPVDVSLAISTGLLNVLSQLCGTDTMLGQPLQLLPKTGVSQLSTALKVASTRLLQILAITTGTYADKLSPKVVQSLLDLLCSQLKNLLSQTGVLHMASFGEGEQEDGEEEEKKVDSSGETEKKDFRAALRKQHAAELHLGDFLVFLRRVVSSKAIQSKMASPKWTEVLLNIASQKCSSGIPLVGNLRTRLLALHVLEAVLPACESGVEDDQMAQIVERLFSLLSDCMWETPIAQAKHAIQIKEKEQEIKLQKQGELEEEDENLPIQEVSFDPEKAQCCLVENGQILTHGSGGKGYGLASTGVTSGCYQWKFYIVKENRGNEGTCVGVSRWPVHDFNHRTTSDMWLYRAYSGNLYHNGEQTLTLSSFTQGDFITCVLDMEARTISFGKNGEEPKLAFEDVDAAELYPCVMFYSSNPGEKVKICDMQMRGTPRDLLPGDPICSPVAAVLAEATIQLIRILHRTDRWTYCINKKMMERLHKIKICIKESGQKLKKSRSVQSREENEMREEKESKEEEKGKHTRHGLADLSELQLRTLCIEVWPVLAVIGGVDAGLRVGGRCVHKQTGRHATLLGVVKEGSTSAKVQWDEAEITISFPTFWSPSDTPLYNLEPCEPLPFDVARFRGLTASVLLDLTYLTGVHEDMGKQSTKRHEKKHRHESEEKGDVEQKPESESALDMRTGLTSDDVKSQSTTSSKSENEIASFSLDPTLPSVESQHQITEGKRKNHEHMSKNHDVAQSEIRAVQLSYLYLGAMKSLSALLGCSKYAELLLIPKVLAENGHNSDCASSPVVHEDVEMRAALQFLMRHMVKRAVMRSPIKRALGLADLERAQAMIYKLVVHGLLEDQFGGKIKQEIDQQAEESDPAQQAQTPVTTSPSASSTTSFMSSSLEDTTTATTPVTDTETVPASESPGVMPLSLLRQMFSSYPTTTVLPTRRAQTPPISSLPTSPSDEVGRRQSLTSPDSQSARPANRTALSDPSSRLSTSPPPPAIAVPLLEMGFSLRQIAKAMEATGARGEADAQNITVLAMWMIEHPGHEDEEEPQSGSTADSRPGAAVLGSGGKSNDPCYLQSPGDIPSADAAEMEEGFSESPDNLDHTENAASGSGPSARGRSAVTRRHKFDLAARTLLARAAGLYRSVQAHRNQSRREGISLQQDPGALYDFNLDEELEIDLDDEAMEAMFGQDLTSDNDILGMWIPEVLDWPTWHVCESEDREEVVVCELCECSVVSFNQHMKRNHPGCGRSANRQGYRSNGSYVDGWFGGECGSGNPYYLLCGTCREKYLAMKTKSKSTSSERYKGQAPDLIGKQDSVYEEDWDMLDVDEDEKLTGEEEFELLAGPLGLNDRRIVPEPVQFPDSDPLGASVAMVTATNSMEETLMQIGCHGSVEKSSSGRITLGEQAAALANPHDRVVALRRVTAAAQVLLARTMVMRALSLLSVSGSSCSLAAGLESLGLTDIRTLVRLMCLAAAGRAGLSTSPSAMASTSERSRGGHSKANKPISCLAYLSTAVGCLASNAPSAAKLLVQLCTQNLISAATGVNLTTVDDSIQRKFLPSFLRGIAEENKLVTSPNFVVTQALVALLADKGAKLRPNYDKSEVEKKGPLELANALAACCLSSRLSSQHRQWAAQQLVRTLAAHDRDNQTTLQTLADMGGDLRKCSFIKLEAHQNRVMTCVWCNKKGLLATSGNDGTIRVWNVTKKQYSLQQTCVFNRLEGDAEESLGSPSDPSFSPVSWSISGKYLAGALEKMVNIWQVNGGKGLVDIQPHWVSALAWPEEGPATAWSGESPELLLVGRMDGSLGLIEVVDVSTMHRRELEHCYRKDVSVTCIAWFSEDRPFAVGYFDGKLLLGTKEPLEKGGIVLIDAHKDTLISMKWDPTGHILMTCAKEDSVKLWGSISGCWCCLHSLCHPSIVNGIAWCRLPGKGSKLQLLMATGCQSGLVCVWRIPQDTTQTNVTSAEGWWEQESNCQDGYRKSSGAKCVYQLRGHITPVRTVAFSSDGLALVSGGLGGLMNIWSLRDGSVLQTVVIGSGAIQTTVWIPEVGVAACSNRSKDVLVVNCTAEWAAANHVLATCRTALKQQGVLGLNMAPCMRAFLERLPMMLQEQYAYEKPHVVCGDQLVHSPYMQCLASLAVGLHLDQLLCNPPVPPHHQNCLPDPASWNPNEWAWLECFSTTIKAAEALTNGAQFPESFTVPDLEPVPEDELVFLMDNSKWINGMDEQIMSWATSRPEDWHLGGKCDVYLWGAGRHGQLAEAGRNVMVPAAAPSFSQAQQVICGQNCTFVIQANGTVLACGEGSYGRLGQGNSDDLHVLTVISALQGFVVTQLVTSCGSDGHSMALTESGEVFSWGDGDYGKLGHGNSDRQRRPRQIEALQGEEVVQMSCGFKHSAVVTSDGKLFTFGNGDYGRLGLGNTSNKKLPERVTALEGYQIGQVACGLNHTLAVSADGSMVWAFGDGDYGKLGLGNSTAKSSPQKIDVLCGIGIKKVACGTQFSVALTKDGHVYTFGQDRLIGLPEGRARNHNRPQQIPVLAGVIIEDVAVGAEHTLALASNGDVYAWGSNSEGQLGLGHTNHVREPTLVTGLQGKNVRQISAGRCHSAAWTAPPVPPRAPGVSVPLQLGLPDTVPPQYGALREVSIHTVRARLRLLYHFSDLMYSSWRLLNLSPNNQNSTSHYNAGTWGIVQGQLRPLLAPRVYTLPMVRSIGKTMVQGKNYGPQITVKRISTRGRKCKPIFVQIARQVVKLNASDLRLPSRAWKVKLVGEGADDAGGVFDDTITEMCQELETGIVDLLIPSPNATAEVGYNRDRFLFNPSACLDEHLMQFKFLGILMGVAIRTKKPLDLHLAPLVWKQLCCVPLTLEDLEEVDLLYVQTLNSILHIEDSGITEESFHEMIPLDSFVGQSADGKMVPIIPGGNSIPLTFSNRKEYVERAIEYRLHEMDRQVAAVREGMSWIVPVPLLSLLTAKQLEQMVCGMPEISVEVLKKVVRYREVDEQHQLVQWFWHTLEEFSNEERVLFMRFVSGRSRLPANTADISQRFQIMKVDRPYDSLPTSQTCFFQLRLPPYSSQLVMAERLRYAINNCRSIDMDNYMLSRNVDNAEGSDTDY
GFP-HERC1 (1-2958): residues 1-2958 of Q15751
GFP-HERC1 (1-1334): residues 1-1334 of Q15751
GFP-HERC1 (1-412): residues 1-412 of Q15751
UniProt P15056: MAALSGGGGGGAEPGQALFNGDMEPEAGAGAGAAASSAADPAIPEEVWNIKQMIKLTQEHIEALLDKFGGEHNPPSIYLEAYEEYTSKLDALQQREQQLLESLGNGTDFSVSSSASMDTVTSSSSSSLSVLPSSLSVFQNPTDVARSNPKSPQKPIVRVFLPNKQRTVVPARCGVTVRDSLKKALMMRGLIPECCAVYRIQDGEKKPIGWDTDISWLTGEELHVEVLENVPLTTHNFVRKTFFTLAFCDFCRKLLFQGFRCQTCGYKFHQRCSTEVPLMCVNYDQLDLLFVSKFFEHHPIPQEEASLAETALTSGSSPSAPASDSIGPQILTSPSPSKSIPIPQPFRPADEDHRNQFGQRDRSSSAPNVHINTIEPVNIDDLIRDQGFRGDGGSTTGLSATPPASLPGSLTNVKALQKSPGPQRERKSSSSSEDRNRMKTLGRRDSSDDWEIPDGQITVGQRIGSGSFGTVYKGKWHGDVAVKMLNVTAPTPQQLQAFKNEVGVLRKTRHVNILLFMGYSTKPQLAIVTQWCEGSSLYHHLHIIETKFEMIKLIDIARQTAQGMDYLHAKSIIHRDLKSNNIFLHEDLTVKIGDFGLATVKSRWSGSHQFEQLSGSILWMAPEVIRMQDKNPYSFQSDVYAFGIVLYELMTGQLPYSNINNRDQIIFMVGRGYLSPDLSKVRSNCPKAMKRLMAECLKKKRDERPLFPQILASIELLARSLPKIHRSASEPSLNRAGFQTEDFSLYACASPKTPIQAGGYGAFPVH

Tests used:
[1] = target: HERC1 (E3 ubiquitin ligase HERC1), endogenous human (human (endogenous in HEK-293T and HeLa)) (UniProt Q15751); experiment: co-IP; supernatants of HEK-293T lysates (untransfected, transfected with C-RAF-GFP, or serum-deprived overnight and stimulated with 120 ng/ml EGF for 5 min) incubated with anti-HERC1 polyclonal antibody Bvg6 or pre-immune serum 2 h at 4°C, protein A-Sepharose 1 h, four washes in NP40 buffer (50 mM Tris-HCl pH 7.5, 150 mM NaCl, 50 mM NaF, 0.5% NP40), immunoblot
[2] = target: GFP-HERC1 (1-1334) (human) (UniProt Q15751); experiment: pull-down; lysates of HEK-293T cells transfected with GFP or GFP-HERC1 fusion constructs incubated with GFP-TrapA beads 2 h at 4°C, four washes in NP40 buffer; endogenous C-RAF detected by immunoblot
[3] = target: GFP-HERC1 (1-2958) (human) (UniProt Q15751); experiment: as above
[4] = target: GFP-HERC1 (1-412) (human) (UniProt Q15751); experiment: as above
[5] = target: HERC1 (E3 ubiquitin ligase HERC1), endogenous human (human (endogenous in HEK-293T and HeLa)) (UniProt Q15751); experiment: co-IP; supernatants of HeLa cell lysates immunoprecipitated with anti-HERC1 antibodies or pre-immune serum, protein A-Sepharose, NP40 buffer, immunoblot
[6] = target: HERC1, endogenous rat (rat (endogenous in rat liver)); experiment: co-IP; supernatants of rat liver lysates immunoprecipitated with anti-HERC1 antibodies or pre-immune serum, protein A-Sepharose, NP40 buffer, immunoblot
[7] = target: GFP-C-RAF (301-648) (human) (UniProt P04049); experiment: pull-down; lysates of HEK-293T cells co-transfected with myc-HERC1 (1-1413) and GFP or GFP-C-RAF fusion constructs incubated with GFP-TrapA beads 2 h at 4°C, four washes in NP40 buffer; immunoblot

- binding [1]: binds
Substance: B-RAF, endogenous human (from UniProt P15056 1-766)

- binding [2]: binds
- binding [3]: binds
- binding [4]: binds
- binding [5]: binds
- binding [1]: binds
Substance: C-RAF, endogenous human (from UniProt P04049 1-648)

- binding [6]: binds
Substance: C-RAF, endogenous rat (from UniProt P11345 1-648)

- binding [1]: binds
Substance: C-RAF-GFP (from UniProt P04049 1-648)

- binding [7]: binds
Substance: myc-HERC1 (1-1413) (from UniProt Q15751 1-1413) (domain or fragment)
